Read-outs that look alike come from different tables or passages of the source. Results are given in words; binding and its absence hold for the method and conditions named. Binding seen in cells or lysates may run through a third protein. These calls come from enrichment with a bait or labelling near it, and not all partners need be listed. For some of these results: A no says only that the protein was not detected with the bait. For some of these results: Tags and fused reporters may be left off the sequences shown.

Sequences of proteins named here, by UniProt entry; tags and fusion partners are left off.
UniProt A0A7G5KET3: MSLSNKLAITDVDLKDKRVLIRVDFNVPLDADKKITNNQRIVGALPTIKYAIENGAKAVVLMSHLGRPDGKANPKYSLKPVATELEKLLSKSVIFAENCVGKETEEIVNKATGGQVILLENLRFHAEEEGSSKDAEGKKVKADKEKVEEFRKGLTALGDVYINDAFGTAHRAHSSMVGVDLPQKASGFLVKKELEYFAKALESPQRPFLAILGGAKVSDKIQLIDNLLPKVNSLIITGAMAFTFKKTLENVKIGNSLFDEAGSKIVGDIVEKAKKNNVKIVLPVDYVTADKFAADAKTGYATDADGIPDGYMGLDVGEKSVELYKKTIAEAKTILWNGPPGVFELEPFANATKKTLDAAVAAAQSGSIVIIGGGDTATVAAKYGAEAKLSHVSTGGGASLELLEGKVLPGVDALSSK
UniProt A0A7U2MSD6: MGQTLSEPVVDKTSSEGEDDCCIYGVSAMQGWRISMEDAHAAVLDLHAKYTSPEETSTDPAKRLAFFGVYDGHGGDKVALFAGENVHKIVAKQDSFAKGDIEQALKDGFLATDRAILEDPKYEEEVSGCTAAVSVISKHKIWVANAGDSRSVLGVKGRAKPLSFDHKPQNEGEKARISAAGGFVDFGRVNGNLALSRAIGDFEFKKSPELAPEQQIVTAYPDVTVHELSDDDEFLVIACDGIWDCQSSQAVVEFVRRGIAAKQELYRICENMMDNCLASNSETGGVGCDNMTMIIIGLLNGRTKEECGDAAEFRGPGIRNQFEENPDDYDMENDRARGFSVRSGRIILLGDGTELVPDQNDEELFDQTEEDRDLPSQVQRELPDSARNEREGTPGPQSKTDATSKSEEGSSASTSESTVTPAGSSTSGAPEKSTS

Common to all, as to test: affinity purification with mass spectrometry
Assay [1] concerns the target Ptc2::eGFP (Aspergillus flavus).
Assay [2] concerns the target T1, Ptc1::eGFP (Aspergillus flavus) (UniProt B8NLZ3).
T1 sequence: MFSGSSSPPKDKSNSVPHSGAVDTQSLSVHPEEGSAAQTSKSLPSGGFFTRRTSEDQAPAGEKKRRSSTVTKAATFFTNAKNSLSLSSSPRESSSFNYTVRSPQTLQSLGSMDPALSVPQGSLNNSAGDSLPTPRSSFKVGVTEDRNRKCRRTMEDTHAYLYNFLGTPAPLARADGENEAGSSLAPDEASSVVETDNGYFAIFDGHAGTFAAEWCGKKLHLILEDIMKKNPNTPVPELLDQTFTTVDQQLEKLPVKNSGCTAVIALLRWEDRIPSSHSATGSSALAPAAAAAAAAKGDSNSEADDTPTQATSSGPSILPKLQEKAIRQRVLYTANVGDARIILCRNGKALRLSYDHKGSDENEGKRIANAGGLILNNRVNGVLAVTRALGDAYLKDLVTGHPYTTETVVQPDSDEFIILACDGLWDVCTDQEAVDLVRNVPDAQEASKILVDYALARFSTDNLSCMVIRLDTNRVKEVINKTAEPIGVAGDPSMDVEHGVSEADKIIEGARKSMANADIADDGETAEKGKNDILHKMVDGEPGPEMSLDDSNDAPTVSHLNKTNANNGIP

The target in assay [3] is Ptc2::eGFP (Aspergillus flavus). The source holds these as a separate data set.

On to “phosphoglycerate kinase 1 (PGK1) (from UniProt A0A7G5KET3 1-417) (enzyme)”, for which the binding entry in assay [1] and in assay [2] was “binds” each time.
With “Ptc2 (endogenous, untagged) (from UniProt A0A7U2MSD6 1-435) (enzyme)”, in assay [2], the binding result was “no binding”.

B1: Ptc1 (endogenous, untagged) (enzyme, UniProt B8NLZ3 1-570)
chain: MFSGSSSPPKDKSNSVPHSGAVDTQSLSVHPEEGSAAQTSKSLPSGGFFTRRTSEDQAPAGEKKRRSSTVTKAATFFTNAKNSLSLSSSPRESSSFNYTVRSPQTLQSLGSMDPALSVPQGSLNNSAGDSLPTPRSSFKVGVTEDRNRKCRRTMEDTHAYLYNFLGTPAPLARADGENEAGSSLAPDEASSVVETDNGYFAIFDGHAGTFAAEWCGKKLHLILEDIMKKNPNTPVPELLDQTFTTVDQQLEKLPVKNSGCTAVIALLRWEDRIPSSHSATGSSALAPAAAAAAAAKGDSNSEADDTPTQATSSGPSILPKLQEKAIRQRVLYTANVGDARIILCRNGKALRLSYDHKGSDENEGKRIANAGGLILNNRVNGVLAVTRALGDAYLKDLVTGHPYTTETVVQPDSDEFIILACDGLWDVCTDQEAVDLVRNVPDAQEASKILVDYALARFSTDNLSCMVIRLDTNRVKEVINKTAEPIGVAGDPSMDVEHGVSEADKIIEGARKSMANADIADDGETAEKGKNDILHKMVDGEPGPEMSLDDSNDAPTVSHLNKTNANNGIP
As for B1, the binding result in assay [3] is “no binding”.

For the origin of these results see article PMC10653812.
